Assay results reported in publication PMC11603163.
These are yes or no findings as the source states them, for the method shown. In cells and extracts the contact can be indirect. These calls come from enrichment with a bait or labelling near it, and not all partners need be listed. For some of these results: No binding means not detected with the bait. For some of these results: Sequences can lack the tags named with a protein.

Amino acid sequences for entries named in this document (tags omitted).
UniProt Q9LQ02: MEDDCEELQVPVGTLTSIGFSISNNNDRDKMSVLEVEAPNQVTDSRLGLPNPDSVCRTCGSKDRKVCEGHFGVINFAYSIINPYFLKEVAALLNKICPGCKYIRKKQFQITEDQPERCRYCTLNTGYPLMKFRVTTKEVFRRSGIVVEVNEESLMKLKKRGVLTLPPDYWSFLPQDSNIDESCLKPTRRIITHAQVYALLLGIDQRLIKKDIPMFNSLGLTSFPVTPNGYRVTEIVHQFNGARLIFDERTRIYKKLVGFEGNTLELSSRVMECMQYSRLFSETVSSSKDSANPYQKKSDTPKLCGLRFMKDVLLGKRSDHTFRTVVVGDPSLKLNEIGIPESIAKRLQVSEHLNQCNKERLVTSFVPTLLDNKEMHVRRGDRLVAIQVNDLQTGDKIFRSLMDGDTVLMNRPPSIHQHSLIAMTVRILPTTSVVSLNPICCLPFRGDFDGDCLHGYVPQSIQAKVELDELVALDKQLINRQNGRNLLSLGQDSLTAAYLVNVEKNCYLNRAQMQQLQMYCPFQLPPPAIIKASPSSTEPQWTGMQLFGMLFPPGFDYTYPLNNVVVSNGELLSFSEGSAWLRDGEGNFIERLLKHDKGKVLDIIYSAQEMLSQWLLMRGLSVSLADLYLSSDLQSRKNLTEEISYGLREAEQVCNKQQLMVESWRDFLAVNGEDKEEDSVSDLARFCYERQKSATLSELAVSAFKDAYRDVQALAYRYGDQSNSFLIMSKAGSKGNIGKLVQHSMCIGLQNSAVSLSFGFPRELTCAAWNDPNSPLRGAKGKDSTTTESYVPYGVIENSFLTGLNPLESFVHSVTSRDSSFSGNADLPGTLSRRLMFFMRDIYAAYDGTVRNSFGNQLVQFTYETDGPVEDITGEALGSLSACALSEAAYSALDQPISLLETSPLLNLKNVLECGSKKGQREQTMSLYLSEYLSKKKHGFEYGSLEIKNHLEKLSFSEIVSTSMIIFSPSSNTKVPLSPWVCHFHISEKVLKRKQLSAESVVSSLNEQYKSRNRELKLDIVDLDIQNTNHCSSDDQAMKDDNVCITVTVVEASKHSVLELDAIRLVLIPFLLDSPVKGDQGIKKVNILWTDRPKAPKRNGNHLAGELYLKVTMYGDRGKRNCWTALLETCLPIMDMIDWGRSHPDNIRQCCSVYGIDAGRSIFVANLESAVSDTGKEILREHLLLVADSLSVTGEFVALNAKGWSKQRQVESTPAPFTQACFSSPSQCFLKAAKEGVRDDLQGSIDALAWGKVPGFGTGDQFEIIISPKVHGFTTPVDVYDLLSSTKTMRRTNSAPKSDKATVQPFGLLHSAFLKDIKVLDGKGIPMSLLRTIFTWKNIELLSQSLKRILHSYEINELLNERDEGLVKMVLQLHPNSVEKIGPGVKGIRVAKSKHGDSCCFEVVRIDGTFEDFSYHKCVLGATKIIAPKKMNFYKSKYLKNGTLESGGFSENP

How the values were obtained:
3xHA-CLSY1 (Arabidopsis) = target: T1, 3xHA-CLSY1 (Arabidopsis) (UniProt Q9M297); assay: affinity purification with mass spectrometry; anti-HA IP (uMACS HA kit) of 3xHA-CLSY1 from flowers of nrpd1-3 lines with NRPD1-3xF WT or AAA-YPMF; LC-MS/MS
T1 sequence: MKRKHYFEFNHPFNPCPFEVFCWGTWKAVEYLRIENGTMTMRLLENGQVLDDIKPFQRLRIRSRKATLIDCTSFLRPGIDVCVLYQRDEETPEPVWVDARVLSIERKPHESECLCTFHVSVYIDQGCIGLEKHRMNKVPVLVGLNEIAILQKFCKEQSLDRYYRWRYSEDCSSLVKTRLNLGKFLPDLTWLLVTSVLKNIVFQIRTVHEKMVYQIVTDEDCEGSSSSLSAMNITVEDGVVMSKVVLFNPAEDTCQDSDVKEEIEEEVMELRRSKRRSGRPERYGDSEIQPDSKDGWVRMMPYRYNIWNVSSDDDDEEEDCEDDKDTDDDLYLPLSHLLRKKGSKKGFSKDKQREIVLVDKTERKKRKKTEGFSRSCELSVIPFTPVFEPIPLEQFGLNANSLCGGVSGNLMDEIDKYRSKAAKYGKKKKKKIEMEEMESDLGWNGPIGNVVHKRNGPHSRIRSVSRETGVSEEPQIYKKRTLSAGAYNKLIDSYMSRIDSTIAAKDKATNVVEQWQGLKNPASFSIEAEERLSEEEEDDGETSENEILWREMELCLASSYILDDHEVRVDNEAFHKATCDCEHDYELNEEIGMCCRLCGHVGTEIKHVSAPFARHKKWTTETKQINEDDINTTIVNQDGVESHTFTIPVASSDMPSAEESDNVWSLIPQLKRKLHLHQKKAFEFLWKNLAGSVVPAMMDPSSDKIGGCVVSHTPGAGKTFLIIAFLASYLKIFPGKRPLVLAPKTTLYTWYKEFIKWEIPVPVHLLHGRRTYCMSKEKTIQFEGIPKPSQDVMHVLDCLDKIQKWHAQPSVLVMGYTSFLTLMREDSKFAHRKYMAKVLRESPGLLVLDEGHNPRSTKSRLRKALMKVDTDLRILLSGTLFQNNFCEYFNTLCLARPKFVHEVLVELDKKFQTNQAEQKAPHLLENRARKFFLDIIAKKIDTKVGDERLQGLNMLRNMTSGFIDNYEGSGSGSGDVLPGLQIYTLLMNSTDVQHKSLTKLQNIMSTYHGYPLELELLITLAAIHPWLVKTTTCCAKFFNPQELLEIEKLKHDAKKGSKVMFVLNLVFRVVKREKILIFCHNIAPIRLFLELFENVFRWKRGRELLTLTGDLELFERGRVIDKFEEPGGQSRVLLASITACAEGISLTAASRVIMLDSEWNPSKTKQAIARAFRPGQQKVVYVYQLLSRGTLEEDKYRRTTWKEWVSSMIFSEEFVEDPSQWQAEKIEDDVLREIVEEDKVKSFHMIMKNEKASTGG

[1] = target: T2, 3xF-tagged CLSY1 (Arabidopsis) (UniProt Q9M297); assay: affinity purification with mass spectrometry; anti-Flag M2 magnetic beads on 10 g flowers of 3xF-tagged CLSY lines in their clsy mutant backgrounds; elution with 3x-FLAG peptide; compared to non-transgenic wild-type controls
T2 sequence: T1 sequence

[2] = target: T3, 3xF-tagged CLSY3 (Arabidopsis) (UniProt F4I8S3); assay: as above
T3 sequence: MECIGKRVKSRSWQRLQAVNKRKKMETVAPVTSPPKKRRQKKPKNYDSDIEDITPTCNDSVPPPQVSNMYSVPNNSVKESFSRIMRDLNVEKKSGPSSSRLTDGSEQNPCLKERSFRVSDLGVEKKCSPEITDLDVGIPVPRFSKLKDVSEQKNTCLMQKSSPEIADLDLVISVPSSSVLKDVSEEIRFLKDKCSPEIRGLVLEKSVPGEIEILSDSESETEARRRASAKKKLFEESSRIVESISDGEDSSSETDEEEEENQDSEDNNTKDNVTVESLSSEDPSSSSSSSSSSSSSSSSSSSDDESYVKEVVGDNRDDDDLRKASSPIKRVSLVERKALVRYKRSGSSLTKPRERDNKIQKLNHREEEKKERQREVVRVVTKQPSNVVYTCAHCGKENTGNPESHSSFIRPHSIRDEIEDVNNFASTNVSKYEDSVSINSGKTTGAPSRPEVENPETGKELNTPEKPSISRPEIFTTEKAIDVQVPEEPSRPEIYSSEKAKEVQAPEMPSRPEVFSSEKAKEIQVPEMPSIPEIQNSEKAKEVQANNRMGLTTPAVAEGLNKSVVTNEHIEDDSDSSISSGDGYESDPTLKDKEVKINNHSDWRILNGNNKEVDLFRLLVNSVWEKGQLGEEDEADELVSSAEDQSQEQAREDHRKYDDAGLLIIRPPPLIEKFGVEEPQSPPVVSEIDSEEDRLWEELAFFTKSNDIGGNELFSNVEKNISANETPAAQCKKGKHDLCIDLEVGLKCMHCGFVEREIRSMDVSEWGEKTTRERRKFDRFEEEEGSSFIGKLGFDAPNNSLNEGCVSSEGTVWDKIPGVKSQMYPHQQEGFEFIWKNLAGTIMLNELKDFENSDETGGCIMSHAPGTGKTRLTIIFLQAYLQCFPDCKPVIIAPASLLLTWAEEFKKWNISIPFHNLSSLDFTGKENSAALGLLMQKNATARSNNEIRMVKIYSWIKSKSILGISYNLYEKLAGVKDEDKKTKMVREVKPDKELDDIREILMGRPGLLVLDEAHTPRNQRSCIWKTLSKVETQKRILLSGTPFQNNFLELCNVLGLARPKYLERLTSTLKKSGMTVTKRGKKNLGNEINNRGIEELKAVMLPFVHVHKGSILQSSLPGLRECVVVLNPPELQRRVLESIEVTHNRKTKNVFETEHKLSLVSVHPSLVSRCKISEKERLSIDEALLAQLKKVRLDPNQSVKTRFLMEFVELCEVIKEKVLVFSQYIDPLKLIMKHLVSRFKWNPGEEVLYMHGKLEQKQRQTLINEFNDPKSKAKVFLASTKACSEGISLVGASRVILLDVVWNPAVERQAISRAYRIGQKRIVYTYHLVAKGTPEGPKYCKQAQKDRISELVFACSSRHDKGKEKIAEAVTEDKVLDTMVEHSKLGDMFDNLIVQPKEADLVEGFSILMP

[3] = target: NRPD1-3xFWT (Arabidopsis) (UniProt Q9LQ02); assay: affinity purification with mass spectrometry; anti-FLAG magnetic beads (uMACS DYKDDDK kit) on flower extracts of nrpd1-3 T2 lines with NRPD1-3xF WT, AAA-YPMF or CYC-AAAA; three lines, two replicates each; LC-MS/MS spectral counts

B1: CLASSY 4 (CLSY4) (protein, UniProt Q9LK10 1-1132)
chain: MDMTSCVARRTRSRTESYLNSILNKSKGISGEEEDQSLGCVNSRTEKRRVNMRDACSPSPRKKKRRRRKDDDDDVVFVRTEYPEGKRDDENVGSTSGNLQSKSFDFGDRVCDFDADDRNLGCEEKASNFNPIDDDDDVVFVGTVQRENDHVEDDDNVGSASVISPRVCDFDEDDAKVSGKENPLSPDDDDDVVFLGTIAGENQHVEDVNAGSEVCDILLDDANLRGEEKTYVSDEVVSLSSSSDDEEDPLEELGTDSREEVSGEDRDSGESDMDEDANDSDSSDYVGESSDSSDVESSDSDFVCSEDEEGGTRDDATCEKNPSEKVYHHKKSRTFRRKHNFDVINLLAKSMLESKDVFKEDIFSWDKIAEVDSREDPVVRESSSEKVNEHGKPRERRSFHRVREKNHLNGESFYGGEKLCDGEETINYSTEDSPPLNLRFGCEEPVLIEKTEEEKELDSLWEDMNVALTLEGMHSSTPDKNGDMLCSKGTHDFVLDDEIGLKCVHCAYVAVEIKDISPAMDKYRPSVNDNKKCSDRKGDPLPNRLEFDASDPSSFVAPLDNIEGTVWQYVPGIKDTLYPHQQEGFEFIWKNLAGTTKINELNSVGVKGSGGCIISHKAGTGKTRLTVVFLQSYLKRFPNSHPMVIAPATLMRTWEDEVRKWNVNIPFYNMNSLQLSGYEDAEAVSRLEGNRHHNSIRMVKLVSWWKQKSILGISYPLYEKLAANKNTEGMQVFRRMLVELPGLLVLDEGHTPRNQSSLIWKVLTEVRTEKRIFLSGTLFQNNFKELSNVLCLARPADKDTISSRIHELSKCSQEGEHGRVNEENRIVDLKAMIAHFVHVHEGTILQESLPGLRDCVVVLNPPFQQKKILDRIDTSQNTFEFEHKLSAVSVHPSLYLCCNPTKKEDLVIGPATLGTLKRLRLKYEEGVKTKFLIDFIRISGTVKEKVLVYSQYIDTLKLIMEQLIAECDWTEGEQILLMHGKVEQRDRQHMIDNFNKPDSGSKVLLASTKACSEGISLVGASRVVILDVVWNPSVESQAISRAFRIGQKRAVFIYHLMVKDTSEWNKYCKQSEKHRISELVFSSTNEKDKPINNEVVSKDRILDEMVRHEKLKHIFEKILYHPKKSDMNTSFF
For B1, the binding (3xHA-CLSY1 (Arabidopsis)) was “no binding”, the binding [1] was “no binding” and the binding [2] was “no binding”. For the same binder, the binding [3] was “binds”.
